Measured values: the supplement of paper PMC12823440, “Inhibitors supercharge kinase turnover through native proteolytic circuits” (Nature, 2025)
The list shows a part of the results. Hit calls seldom repeat between salt and free forms of one compound.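 Kinases, fused to nanoluciferase, were expressed in K562 cells; luminescence was measured every 4 h from 2 to 18 h as percent of control (DMSO = 100%, positive control = 0%). A time point is decreased if signal falls significantly (2 sigma). Hits were called by the authors by a rule that is not shown; the count of time points alone does not decide it.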

Chains of the proteins cited; added tags and fusions are not shown.
UniProt P29317, whole entry: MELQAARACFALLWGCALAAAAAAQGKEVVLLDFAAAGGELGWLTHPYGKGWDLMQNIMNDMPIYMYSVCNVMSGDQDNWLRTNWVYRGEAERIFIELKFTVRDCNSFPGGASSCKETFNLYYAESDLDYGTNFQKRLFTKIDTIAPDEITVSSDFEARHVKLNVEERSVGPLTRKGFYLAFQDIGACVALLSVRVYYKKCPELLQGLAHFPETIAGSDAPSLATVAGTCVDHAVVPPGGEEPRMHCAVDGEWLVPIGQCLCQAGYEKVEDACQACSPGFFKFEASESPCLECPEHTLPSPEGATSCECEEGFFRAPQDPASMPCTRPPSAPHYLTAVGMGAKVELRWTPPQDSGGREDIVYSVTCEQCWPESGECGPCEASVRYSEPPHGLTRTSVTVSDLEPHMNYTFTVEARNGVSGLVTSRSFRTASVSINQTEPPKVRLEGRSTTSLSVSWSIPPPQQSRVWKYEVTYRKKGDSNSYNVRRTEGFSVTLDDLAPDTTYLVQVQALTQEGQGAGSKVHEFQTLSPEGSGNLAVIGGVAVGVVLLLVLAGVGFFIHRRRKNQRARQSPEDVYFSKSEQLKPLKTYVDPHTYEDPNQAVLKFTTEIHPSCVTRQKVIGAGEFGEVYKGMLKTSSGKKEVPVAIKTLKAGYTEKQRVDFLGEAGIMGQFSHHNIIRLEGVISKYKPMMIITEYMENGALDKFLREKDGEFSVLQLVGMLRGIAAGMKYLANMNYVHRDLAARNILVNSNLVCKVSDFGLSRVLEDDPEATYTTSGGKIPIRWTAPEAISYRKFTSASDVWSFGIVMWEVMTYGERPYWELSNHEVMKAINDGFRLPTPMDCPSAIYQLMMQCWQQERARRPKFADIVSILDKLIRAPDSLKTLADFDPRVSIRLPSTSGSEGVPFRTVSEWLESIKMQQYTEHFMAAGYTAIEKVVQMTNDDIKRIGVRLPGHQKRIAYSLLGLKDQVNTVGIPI
UniProt P21860, whole entry: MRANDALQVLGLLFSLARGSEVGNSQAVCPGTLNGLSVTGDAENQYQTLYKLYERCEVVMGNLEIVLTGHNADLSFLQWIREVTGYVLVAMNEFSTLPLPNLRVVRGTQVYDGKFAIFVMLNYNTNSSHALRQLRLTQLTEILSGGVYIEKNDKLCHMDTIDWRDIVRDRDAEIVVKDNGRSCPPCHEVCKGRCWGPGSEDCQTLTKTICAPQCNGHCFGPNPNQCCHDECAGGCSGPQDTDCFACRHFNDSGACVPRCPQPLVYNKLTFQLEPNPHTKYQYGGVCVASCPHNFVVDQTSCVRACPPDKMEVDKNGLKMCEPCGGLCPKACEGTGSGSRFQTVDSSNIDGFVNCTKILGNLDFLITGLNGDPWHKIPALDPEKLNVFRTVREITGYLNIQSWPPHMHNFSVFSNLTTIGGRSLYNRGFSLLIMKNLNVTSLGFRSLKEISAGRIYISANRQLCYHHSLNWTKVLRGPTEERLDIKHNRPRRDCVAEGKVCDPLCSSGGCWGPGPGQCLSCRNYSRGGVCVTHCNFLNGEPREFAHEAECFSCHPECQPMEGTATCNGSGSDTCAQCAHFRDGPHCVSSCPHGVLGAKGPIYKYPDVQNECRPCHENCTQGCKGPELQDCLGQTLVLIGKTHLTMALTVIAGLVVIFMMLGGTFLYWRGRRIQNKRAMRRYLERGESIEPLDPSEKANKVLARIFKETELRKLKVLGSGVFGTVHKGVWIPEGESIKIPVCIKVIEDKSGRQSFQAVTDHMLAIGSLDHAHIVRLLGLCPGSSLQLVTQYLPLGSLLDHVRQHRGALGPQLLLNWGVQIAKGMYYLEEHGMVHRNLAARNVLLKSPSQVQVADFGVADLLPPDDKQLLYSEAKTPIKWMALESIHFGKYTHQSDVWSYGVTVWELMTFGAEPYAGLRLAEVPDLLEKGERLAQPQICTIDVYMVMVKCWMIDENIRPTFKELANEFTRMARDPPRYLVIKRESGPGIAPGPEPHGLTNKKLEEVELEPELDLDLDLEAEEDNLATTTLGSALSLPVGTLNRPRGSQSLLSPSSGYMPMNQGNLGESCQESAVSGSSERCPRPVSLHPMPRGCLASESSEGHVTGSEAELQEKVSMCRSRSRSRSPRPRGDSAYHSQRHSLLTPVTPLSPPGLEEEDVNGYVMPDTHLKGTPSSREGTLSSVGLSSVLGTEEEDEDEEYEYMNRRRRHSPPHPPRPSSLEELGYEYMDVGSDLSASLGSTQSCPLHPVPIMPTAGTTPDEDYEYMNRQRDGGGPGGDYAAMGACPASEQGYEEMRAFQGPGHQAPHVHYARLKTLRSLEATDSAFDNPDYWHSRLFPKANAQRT
UniProt Q15303, whole entry R711C: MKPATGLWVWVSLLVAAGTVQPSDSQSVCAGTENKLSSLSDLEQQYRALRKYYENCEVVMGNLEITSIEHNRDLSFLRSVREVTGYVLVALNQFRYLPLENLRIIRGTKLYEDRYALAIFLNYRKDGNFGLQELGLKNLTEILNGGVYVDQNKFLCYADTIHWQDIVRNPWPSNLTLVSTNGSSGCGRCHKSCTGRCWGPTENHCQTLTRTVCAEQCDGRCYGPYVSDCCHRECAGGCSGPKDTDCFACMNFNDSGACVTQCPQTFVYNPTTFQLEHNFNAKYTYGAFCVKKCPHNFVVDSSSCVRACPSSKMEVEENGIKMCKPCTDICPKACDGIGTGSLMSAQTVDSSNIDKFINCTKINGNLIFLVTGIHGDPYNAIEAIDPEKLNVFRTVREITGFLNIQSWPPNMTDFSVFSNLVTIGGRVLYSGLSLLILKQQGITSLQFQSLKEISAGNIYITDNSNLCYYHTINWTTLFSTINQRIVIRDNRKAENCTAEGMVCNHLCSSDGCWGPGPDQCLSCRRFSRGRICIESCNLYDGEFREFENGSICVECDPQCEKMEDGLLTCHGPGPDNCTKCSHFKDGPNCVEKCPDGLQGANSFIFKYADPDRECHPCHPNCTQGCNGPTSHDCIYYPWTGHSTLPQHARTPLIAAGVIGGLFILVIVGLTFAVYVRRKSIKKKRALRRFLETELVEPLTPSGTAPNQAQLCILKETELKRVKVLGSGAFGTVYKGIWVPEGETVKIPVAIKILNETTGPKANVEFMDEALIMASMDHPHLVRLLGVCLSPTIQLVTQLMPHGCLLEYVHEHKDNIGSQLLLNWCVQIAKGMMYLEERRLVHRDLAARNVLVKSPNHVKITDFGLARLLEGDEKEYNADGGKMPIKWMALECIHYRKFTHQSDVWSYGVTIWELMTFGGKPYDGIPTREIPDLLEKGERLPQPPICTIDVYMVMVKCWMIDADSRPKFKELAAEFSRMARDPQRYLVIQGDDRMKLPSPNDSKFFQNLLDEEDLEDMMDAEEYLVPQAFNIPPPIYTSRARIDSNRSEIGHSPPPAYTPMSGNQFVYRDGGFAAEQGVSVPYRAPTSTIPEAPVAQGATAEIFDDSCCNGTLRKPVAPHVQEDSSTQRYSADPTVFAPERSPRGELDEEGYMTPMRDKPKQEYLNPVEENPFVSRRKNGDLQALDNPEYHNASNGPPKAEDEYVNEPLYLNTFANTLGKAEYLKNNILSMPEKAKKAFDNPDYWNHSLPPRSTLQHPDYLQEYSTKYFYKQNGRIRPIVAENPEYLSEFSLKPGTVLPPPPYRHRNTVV

Columns and labels:
Test in all cases: kinase-Nluc reporter destabilization hit call (1 = scored as downregulated) (binary); higher = compound decreases kinase abundance
Conditions in all cases: K562; 2-18 h
EGFR = EGFR (UniProt P00533)
EGFR_G719S = EGFR_G719S (UniProt P00533)
EGFR_G719S_T790M = EGFR_G719S_T790M (UniProt P00533)
EGFR_L718V = EGFR_L718V (UniProt P00533)
EGFR_L858R = EGFR_L858R (UniProt P00533)
EGFR_L861Q = EGFR_L861Q (UniProt P00533)
EGFR_T790M = EGFR_T790M (UniProt P00533)
EPHA2 = EPHA2 (UniProt P29317)
ERBB3 = ERBB3 (UniProt P21860)
[1] = target: ERBB4_R711C (clone: ERBB4_mut) (UniProt Q15303)

Measured: kinase-Nluc reporter destabilization hit call

Cc1nn(C)cc1-c1nc2c(N3CCN(Cc4ccc(Cl)cc4)CC3)c(Cl)cnc2[nH]1 (10 µM)
inactive: EGFR 0 | EGFR_G719S 0 | EGFR_G719S_T790M 0 | EGFR_L718V 0 | EGFR_L858R 0 | EGFR_L861Q 0 | EGFR_T790M 0 | EPHA2 = 0 | ERBB3 = 0 | [1] 0

Cc1cccc(-c2[nH]ncc2-c2ccnc3ccccc23)n1 (10 µM)
inactive: EGFR 0 | EGFR_G719S 0 | EGFR_G719S_T790M 0 | EGFR_L718V 0 | EGFR_L858R 0 | EGFR_L861Q 0 | EGFR_T790M 0 | EPHA2 = 0 | ERBB3 = 0 | [1] 0

CN1CCN(c2cc(-c3ccncc3)c(-c3ccc4ccccc4c3)nn2)CC1 (10 µM)
inactive: EGFR 0 | EGFR_G719S 0 | EGFR_G719S_T790M 0 | EGFR_L718V 0 | EGFR_L858R 0 | EGFR_L861Q 0 | EGFR_T790M 0 | EPHA2 = 0 | ERBB3 = 0 | [1] 0

COCCOc1ccc2c(c1)ncn2-c1ccc2cccc(N3CCC(N)CC3)c2n1 (10 µM)
inactive: EGFR 0 | EGFR_G719S 0 | EGFR_G719S_T790M 0 | EGFR_L718V 0 | EGFR_L858R 0 | EGFR_L861Q 0 | EGFR_T790M 0 | EPHA2 = 0 | ERBB3 = 0 | [1] 0
